Test results: the supplement of paper PMC12067093, “Discovery and optimisation of a covalent ligand for TRIM25 and its application to targeted protein ubiquitination” (Chemical Science, 2025)
The other results are listed elsewhere or left out.

The chains behind the UniProt entries cited, without tags or fusion partners. Where a name states a change or a piece, a line headed by the entry shows the natural chain unless it says otherwise.
UniProt P21291: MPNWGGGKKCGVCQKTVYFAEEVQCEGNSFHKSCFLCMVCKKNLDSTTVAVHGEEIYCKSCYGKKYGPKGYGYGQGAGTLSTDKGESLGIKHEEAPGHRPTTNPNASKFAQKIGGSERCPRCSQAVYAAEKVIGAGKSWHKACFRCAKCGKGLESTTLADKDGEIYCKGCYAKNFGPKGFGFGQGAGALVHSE
UniProt Q10570: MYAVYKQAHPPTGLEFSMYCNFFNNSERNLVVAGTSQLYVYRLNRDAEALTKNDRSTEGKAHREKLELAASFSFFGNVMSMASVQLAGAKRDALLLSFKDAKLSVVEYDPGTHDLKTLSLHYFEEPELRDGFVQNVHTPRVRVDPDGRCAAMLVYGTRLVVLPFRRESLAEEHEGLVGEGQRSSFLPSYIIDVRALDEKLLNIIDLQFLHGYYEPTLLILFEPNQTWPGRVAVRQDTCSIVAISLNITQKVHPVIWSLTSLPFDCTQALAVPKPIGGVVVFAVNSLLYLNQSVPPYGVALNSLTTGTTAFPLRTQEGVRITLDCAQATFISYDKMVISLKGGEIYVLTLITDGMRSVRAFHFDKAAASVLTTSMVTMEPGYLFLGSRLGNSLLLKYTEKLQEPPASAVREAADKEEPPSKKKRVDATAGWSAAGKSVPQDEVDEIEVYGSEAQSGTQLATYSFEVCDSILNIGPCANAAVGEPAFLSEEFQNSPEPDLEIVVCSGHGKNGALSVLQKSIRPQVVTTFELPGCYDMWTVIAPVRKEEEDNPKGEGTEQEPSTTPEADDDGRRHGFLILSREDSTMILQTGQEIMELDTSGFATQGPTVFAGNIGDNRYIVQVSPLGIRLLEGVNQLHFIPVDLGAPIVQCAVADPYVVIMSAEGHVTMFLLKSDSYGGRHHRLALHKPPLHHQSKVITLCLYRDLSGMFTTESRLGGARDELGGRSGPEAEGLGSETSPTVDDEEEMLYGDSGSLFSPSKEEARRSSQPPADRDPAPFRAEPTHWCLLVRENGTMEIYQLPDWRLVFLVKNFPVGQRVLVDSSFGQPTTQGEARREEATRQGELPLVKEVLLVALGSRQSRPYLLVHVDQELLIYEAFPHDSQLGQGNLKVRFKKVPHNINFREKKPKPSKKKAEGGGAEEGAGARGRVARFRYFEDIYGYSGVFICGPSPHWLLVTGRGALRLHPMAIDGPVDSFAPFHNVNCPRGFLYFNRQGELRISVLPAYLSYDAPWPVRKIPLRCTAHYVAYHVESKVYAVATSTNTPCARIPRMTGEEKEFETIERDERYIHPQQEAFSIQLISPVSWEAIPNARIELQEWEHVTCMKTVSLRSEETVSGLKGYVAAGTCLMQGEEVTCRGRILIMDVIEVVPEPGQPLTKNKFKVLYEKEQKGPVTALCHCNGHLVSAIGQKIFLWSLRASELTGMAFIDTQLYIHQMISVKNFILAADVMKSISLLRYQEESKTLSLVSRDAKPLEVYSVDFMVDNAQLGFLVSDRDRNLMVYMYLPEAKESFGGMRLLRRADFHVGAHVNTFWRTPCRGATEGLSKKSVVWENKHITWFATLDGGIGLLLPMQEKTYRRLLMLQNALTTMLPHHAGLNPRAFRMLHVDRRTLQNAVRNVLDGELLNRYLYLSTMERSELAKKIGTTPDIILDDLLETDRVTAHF
UniProt Q9ULV4, whole entry, looked up: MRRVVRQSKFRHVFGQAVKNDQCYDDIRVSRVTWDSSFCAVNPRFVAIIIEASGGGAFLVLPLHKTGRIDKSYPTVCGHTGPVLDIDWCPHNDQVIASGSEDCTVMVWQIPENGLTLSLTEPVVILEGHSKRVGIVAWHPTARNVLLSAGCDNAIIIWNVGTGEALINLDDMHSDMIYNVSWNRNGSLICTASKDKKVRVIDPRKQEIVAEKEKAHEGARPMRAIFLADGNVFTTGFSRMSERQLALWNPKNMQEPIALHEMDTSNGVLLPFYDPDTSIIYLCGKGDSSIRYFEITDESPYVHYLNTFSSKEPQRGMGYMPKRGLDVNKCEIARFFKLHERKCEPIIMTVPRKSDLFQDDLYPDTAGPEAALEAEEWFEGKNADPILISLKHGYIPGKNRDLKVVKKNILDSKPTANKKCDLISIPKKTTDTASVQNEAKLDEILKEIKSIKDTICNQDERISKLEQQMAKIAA
UniProt Q99829: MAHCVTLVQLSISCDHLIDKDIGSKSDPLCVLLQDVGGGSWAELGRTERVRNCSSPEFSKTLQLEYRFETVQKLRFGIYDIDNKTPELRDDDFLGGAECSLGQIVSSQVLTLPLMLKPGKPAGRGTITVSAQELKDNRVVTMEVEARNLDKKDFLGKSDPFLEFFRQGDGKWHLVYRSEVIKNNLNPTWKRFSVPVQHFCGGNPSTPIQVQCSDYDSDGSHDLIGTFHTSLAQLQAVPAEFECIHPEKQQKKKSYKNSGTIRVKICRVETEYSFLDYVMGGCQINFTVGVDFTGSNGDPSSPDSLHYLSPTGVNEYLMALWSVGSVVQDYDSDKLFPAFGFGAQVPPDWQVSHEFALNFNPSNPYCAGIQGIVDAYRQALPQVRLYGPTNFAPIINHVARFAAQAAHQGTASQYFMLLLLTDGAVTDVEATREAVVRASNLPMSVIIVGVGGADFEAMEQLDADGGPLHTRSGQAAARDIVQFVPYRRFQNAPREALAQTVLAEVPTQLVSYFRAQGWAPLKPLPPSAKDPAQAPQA
UniProt Q9BR76, whole entry, looked up: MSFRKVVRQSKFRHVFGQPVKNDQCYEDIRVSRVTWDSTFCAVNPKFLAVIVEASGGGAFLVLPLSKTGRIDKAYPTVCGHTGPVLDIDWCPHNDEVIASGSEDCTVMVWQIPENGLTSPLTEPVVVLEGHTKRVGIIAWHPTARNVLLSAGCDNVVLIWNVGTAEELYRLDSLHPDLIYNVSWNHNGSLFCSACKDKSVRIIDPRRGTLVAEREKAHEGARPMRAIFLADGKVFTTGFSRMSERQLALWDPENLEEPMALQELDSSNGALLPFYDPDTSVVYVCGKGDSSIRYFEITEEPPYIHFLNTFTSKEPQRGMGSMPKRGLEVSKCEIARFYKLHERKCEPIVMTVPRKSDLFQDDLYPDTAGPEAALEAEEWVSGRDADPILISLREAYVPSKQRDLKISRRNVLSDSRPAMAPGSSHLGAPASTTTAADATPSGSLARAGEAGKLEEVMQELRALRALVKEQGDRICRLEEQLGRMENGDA
UniProt P36551: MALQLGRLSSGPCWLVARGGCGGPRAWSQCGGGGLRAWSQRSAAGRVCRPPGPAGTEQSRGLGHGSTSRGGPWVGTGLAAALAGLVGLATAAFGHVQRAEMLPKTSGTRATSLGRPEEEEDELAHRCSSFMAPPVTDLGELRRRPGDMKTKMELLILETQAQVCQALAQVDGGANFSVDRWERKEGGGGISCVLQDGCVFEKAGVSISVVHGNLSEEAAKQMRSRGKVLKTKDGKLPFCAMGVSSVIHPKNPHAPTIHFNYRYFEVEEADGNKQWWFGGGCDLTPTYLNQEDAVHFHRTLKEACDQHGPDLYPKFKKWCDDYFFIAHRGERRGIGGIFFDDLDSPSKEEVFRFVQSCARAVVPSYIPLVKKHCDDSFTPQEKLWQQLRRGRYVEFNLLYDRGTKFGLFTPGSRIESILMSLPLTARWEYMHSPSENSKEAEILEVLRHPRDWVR
UniProt P49711: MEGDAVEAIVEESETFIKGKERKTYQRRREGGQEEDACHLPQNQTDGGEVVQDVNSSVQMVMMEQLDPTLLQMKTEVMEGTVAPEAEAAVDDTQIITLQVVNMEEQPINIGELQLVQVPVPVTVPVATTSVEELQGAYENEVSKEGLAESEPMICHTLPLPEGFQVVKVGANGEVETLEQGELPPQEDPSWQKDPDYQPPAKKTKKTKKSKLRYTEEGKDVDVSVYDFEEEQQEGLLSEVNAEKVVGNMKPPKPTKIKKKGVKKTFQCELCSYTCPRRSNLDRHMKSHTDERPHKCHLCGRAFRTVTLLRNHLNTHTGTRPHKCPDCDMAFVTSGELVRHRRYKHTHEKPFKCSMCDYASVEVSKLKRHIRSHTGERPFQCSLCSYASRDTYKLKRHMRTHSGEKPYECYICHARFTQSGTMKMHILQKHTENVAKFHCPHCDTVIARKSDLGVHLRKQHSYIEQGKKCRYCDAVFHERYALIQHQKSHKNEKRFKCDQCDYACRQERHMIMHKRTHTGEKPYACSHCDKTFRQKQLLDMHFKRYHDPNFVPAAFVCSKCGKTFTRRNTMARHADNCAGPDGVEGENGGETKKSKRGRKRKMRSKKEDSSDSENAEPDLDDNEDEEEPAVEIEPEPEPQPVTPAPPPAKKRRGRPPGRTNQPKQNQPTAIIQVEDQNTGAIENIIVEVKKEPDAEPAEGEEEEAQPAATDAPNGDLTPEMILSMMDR
UniProt Q86YQ8: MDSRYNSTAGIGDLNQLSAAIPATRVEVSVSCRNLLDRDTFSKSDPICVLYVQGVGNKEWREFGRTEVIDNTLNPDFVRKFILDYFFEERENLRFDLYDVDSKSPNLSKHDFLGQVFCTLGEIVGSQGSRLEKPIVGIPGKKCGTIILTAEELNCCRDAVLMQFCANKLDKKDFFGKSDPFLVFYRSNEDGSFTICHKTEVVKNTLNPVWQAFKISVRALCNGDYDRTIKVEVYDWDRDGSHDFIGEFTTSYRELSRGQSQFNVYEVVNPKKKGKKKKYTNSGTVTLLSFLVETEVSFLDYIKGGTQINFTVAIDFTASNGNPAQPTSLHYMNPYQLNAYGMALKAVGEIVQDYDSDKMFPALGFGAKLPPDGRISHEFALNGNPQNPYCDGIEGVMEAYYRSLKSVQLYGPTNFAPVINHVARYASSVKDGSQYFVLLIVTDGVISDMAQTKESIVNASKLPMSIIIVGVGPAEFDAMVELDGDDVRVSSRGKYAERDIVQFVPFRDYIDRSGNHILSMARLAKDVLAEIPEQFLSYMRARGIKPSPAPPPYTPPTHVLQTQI
UniProt P50238: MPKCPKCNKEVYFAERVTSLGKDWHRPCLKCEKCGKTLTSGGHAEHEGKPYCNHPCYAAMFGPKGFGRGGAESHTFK
UniProt Q9Y5B0: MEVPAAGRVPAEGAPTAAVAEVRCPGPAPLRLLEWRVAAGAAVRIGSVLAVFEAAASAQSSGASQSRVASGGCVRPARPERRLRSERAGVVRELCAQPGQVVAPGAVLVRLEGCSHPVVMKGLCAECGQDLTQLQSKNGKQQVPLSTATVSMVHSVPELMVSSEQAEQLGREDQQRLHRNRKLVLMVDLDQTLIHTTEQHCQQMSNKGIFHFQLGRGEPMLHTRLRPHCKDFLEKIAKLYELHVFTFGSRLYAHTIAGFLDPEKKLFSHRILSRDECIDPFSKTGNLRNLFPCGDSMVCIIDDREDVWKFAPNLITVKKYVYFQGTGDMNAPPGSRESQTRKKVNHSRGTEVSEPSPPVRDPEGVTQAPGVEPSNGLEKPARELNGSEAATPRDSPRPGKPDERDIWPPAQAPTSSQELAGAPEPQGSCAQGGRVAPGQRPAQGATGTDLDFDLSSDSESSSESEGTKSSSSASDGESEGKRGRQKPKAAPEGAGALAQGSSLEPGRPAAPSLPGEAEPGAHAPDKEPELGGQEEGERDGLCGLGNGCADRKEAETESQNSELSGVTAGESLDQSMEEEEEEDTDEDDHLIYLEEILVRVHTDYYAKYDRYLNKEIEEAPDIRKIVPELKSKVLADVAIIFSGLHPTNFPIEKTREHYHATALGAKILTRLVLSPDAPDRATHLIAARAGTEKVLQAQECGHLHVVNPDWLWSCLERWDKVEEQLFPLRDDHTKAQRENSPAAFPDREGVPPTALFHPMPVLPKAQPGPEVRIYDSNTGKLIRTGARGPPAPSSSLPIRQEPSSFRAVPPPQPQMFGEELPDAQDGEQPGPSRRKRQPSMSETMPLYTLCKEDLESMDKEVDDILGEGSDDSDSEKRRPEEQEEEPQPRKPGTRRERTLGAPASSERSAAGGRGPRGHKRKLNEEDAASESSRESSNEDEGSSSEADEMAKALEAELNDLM
UniProt P10606, whole entry, looked up: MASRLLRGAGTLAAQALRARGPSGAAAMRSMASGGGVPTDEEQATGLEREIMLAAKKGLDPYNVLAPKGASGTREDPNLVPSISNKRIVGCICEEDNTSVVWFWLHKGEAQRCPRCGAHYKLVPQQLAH
UniProt Q16630, whole entry, looked up: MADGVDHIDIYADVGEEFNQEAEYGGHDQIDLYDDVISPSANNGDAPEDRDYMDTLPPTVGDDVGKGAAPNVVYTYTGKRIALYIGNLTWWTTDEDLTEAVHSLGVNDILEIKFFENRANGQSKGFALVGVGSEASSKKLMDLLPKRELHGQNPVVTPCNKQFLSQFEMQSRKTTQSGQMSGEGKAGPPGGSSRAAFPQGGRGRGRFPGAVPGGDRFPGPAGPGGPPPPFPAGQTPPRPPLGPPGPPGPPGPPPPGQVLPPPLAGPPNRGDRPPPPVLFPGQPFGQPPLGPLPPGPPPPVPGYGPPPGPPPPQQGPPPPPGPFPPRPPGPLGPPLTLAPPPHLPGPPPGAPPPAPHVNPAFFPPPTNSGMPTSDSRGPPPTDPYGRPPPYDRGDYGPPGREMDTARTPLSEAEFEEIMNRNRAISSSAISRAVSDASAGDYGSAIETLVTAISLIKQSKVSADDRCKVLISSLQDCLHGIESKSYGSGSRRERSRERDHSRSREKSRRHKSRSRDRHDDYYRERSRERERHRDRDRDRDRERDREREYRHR

Compound: CC1Cc2ccccc2N1C(=O)C1CCCN(C1)C(=O)CCl (mixture of isomers) [TRIM25 ligand 11 (diastereomer mixture)]
Assay: probe-labelled cysteine peptide fold change vs DMSO (competition) (log2 fold change); higher = less target engagement (more negative = stronger competition)
Settings: THP-1, incubation time: 4 h
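Further: competitive chemoproteomic profiling in live THP-1 cells with an iodoacetamide desthiobiotin (IA-DTB) probe, comparing probe-labelled peptide intensities in compound-treated cells against DMSO-treated controls.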

Target | probe-labelled cysteine peptide fold change (10 µM) | probe-labelled cysteine peptide fold change (50 µM)
CSRP1_P21291_167_GLESTTLADKDGEIYCK (UniProt P21291) | -0.27 | -0.117
CPSF1_Q10570_532_SIRPQVVTTFELPGCYDMWTVIAPVRK (UniProt Q10570) | 0.135 | -0.0973
CORO1C_Q9ULV4_23_NDQCYDDIR (UniProt Q9ULV4) | -0.0287 | -0.0243
CPNE1_Q99829_30_SDPLCVLLQDVGGGSWAELGR (UniProt Q99829) | 0.0249 | -0.135
CRYBG1_Q9Y4K1_594+609_EVQLPTCHSNEPEVVSVASCAPPQEEVLGNEHSHCTAELAAK (UniProt Q9Y4K1) | -0.0918 | -0.248
CORO1B_Q9BR76_345_CEPIVMTVPR (UniProt Q9BR76) | -0.0485 | -0.00803
CRELD1_Q96HD1_281_ACLGCMGAGPGR (UniProt Q96HD1) | -0.0156 | -0.024
CORO1A_P31146_332_RGLEVNKCEIAR (UniProt P31146) | -0.603 | -0.342
CSK_P41240_299_FSLDVCEAMEYLEGNNFVHR (UniProt P41240) | 0.0358 | 0.00314
CPSF4_O95639_110_ECPFLHIDPESK (UniProt O95639) | 0.00281 | 0.0403
CSE1L_P55060_85_ICEADR (UniProt P55060) | -0.0358 | 0.149
CRKL_P46109_44_DSSTCPGDYVLSVSENSR (UniProt P46109) | 0.0198 | -0.0389
CORO1B_Q9BR76_25_NDQCYEDIR (UniProt Q9BR76) | 0.0311 | -0.0524
CPOX_P36551_373_HCDDSFTPQEK (UniProt P36551) | -0.0342 | 0.116
CS_O75390_101_GFSIPECQK (UniProt O75390) | -0.083 | -0.11
CPSF3_Q9UKF6_498_RNFNYHILSPCDLSNYTDLAMSTVK (UniProt Q9UKF6) | -0.13 | -0.173
CSNK2B_P67870_140_CMDVYTPK (UniProt P67870) | -0.081 | -0.0226
CTCF_P49711_472_YCDAVFHER (UniProt P49711) | -0.00144 | 0.111
CORO7_P57737_363_KAVEFHEDLFPDTAGCVPATDPHSWWAGDNQQVQK (UniProt P57737) | -0.338 | -0.389
CRIP2_P52943_57_PCYATLFGPK (UniProt P52943) | 0.0354 | -0.135
CORO7_P57737_75_RVAHLGCHSDLVTDLDFSPFDDFLLATGSADR (UniProt P57737) | 0.395 | 0.476
CSTF2T_Q9H0L4_150_LCVQNSHQEAR (UniProt Q9H0L4) | -0.00373 | -0.0348
CSNK2A1_P68400_147_ALDYCHSMGIMHR (UniProt P68400) | 0.203 | 0.0427
CPNE8_Q86YQ8_196_SNEDGSFTICHK (UniProt Q86YQ8) | 0.165 | 0.0412
CRYBG3_Q68DQ2_2762_SLKPIDYVFEEPSISLFALEHCEGR (UniProt Q68DQ2) | 0.233 | -0.0563
CPSF2_Q9P2I0_82_LGLNCAIYATIPVYK (UniProt Q9P2I0) | 0.0858 | 0.0113

Target | probe-labelled cysteine peptide fold change (10 µM) | probe-labelled cysteine peptide fold change (50 µM)
CTDNEP1_O95476_161_QHCTLELGSYIK (UniProt O95476) | 0.00639 | 0.0362
CPPED1_Q9BRF8_197_HCQHAIVFQHIPLFLESIDEDDDYYFNLSK (UniProt Q9BRF8) | -0.00515 | -0.0291
CORO7_P57737_325_QALAVMSCEVLR (UniProt P57737) | 0.179 | 0.183
CORO1A_P31146_195_DGGLICTSCR (UniProt P31146) | -0.0266 | 0.0661
CORO7_P57737_75_VAHLGCHSDLVTDLDFSPFDDFLLATGSADR (UniProt P57737) | 0.031 | 0.0305
CORO7_P57737_695_CLLVSGFDSQSER (UniProt P57737) | -0.101 | 0.0403
COQ8B_Q96D53_499_LAGAFLACAHLR (UniProt Q96D53) | -0.06 | 0.0819
CPNE8_Q86YQ8_143_CGTIILTAEELNCCR (UniProt Q86YQ8) | -0.0909 | -0.0884
CPPED1_Q9BRF8_88_FFVLCGDLIHAMPGKPWR (UniProt Q9BRF8) | -0.127 | -0.14
CORO1B_Q9BR76_192+195_LDSLHPDLIYNVSWNHNGSLFCSACK (UniProt Q9BR76) | 0.324 | -0.0495
CSDE1_O75534_464_EKEAEDGIIAYDDCGVK (UniProt O75534) | -0.346 | -0.451
CPNE3_O75131_54_NCLNPQFSK (UniProt O75131) | -0.0274 | -0.0962
CPS1_P31327_1256_GNDVLVIECNLR (UniProt P31327) | -0.0458 | 0.0903
CPSF1_Q10570_983_LHPMAIDGPVDSFAPFHNVNCPR (UniProt Q10570) | 0.118 | 0.0815
CRYZL1_O95825_40_ACALSQINTK (UniProt O95825) | 0.0943 | 0.0296
CRIP1_P50238_56_TLTSGGHAEHEGKPYCNHPCYAAMFGPK (UniProt P50238) | -0.889 | -1.02
CRYBG1_Q9Y4K1_581+609_EVQLPTCHSNEPEVVSVASCAPPQEEVLGNEHSHCTAELAAK (UniProt Q9Y4K1) | 0.00451 | -0.813
CORO6_Q6QEF8_344_KCEPIIMTVPR (UniProt Q6QEF8) | -0.0909 | -0.0964
CSRP1_P21291_34+37_SCFLCMVCK (UniProt P21291) | -0.0675 | 0.146
CSDE1_O75534_506_QRPGQQVATCVR (UniProt O75534) | -0.0532 | -0.0997
CTDP1_Q9Y5B0_114_LEGCSHPVVMK (UniProt Q9Y5B0) | -0.0347 | 0.14
CPOX_P36551_319_WCDDYFFIAHR (UniProt P36551) | 0.0417 | 0.0223
CRELD2_Q6UXH1_288+294_EHGQCADVDECSLAEK (UniProt Q6UXH1) | -0.0382 | 0.065
CTDP1_Q9Y5B0_277_ILSRDECIDPFSK (UniProt Q9Y5B0) | 0.00948 | -0.128
CSE1L_P55060_344_NLFEDQNTLTSICEK (UniProt P55060) | -0.0761 | -0.057
COX5B_P10606_91+93_IVGCICEEDNTSVVWFWLHK (UniProt P10606) | 0.037 | 0.0397

Target | probe-labelled cysteine peptide fold change (10 µM) | probe-labelled cysteine peptide fold change (50 µM)
CTCF_P49711_155_EGLAESEPMICHTLPLPEGFQVVK (UniProt P49711) | -0.14 | -0.261
CORO1C_Q9ULV4_456_DTICNQDER (UniProt Q9ULV4) | 0.0103 | -0.044
CPSF6_Q16630_159_ELHGQNPVVTPCNK (UniProt Q16630) | 0.0533 | 0.00734
CPT1A_P50416_742_FSCPETDSHR (UniProt P50416) | 0.0238 | -0.0782
CORO6_Q6QEF8_344_CEPIIMTVPR (UniProt Q6QEF8) | 0.0191 | -0.0827
CORO7_P57737_790_TECDVREVELMR (UniProt P57737) | -0.505 | -0.274
CPOX_P36551_281_QWWFGGGCDLTPTYLNQEDAVHFHR (UniProt P36551) | 0.057 | 0.0764
CPSF6_Q16630_159_RELHGQNPVVTPCNK (UniProt Q16630) | 0.0106 | -0.112
CTDP1_Q9Y5B0_201_LVLMVDLDQTLIHTTEQHCQQMSNK (UniProt Q9Y5B0) | 0.129 | -0.196
CRYZ_Q08257_45_VHACGVNPVETYIR (UniProt Q08257) | -0.0836 | 0.0644
CRIP1_P50238_56_PYCNHPCYAAMFGPK (UniProt P50238) | -0.356 | -0.291
CORO1B_Q9BR76_345_KCEPIVMTVPR (UniProt Q9BR76) | -0.102 | -0.0829
CPT1A_P50416_608_SCTTESCDFVR (UniProt P50416) | 0.121 | 0.357
CTBP1_Q13363_312_DAPNLICTPHAAWYSEQASIEMR (UniProt Q13363) | -0.262 | -0.109
CRTAP_O75718_247_AFYECLAACEGSR (UniProt O75718) | 0.322 | 0.486
CRACR2A_Q9BSW2-2_494_CSEEEEVSDQGVQGQIPEAPPLK (UniProt Q9BSW2) | -0.0712 | -0.0343
CRABP1_P29762_130_ELANDELILTFGADDVVCTR (UniProt P29762) | -0.139 | -0.0524
CSDE1_O75534_129_SPAAPGQSPTGSVCYER (UniProt O75534) | 0.0651 | 0.0584
CSTF2_P33240_150_LCVQNSPQEAR (UniProt P33240) | 0.0215 | -0.0712
CPT2_P23786_445_TLTIDCVQFQR (UniProt P23786) | 0.00735 | -0.107
CTNNA1_P35221_438_LIEVANLACSISNNEEGVK (UniProt P35221) | 0.269 | 0.265
COQ8A_Q8NI60_620_KMGGSFLICSK (UniProt Q8NI60) | -0.292 | -0.253
CPNE1_Q99829_4+14_AHCVTLVQLSISCDHLIDK (UniProt Q99829) | 0.0618 | -0.184
CPNE2_Q96FN4_265_DSVPLEFECINPK (UniProt Q96FN4) | -0.22 | -0.165
